Laboratory results reported in publication PMC6718656.

The chains behind the UniProt entries cited, without tags or fusion partners. Where a name states a change or a piece, a line headed by the entry shows the natural chain unless it says otherwise. Residues count along the entry.
UniProt P19320, residues 25-698: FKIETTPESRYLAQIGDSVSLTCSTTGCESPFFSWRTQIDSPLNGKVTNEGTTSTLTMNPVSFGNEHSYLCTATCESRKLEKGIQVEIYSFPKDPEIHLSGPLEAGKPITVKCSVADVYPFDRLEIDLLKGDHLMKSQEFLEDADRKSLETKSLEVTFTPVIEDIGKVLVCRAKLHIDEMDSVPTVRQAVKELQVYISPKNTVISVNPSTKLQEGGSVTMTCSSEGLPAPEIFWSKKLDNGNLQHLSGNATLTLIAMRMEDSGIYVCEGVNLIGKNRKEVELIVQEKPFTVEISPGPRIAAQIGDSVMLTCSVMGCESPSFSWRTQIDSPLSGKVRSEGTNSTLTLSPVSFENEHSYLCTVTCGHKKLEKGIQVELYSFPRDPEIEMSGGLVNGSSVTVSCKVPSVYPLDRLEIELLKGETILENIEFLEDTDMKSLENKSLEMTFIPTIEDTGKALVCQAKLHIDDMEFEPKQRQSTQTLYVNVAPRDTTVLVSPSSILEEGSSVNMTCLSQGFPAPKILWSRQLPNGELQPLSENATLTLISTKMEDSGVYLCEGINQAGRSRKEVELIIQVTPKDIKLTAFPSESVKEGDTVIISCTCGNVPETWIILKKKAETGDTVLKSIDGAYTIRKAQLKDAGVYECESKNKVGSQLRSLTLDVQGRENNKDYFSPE
UniProt P25311, residues 21-298: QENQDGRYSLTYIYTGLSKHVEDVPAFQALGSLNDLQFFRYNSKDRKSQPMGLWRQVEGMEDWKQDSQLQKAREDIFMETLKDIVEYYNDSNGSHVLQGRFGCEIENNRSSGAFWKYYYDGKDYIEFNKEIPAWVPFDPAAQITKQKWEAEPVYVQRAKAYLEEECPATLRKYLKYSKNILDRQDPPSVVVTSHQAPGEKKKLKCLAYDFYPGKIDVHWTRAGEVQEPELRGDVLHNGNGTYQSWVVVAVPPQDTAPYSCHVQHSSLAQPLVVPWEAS
UniProt Q86YZ3: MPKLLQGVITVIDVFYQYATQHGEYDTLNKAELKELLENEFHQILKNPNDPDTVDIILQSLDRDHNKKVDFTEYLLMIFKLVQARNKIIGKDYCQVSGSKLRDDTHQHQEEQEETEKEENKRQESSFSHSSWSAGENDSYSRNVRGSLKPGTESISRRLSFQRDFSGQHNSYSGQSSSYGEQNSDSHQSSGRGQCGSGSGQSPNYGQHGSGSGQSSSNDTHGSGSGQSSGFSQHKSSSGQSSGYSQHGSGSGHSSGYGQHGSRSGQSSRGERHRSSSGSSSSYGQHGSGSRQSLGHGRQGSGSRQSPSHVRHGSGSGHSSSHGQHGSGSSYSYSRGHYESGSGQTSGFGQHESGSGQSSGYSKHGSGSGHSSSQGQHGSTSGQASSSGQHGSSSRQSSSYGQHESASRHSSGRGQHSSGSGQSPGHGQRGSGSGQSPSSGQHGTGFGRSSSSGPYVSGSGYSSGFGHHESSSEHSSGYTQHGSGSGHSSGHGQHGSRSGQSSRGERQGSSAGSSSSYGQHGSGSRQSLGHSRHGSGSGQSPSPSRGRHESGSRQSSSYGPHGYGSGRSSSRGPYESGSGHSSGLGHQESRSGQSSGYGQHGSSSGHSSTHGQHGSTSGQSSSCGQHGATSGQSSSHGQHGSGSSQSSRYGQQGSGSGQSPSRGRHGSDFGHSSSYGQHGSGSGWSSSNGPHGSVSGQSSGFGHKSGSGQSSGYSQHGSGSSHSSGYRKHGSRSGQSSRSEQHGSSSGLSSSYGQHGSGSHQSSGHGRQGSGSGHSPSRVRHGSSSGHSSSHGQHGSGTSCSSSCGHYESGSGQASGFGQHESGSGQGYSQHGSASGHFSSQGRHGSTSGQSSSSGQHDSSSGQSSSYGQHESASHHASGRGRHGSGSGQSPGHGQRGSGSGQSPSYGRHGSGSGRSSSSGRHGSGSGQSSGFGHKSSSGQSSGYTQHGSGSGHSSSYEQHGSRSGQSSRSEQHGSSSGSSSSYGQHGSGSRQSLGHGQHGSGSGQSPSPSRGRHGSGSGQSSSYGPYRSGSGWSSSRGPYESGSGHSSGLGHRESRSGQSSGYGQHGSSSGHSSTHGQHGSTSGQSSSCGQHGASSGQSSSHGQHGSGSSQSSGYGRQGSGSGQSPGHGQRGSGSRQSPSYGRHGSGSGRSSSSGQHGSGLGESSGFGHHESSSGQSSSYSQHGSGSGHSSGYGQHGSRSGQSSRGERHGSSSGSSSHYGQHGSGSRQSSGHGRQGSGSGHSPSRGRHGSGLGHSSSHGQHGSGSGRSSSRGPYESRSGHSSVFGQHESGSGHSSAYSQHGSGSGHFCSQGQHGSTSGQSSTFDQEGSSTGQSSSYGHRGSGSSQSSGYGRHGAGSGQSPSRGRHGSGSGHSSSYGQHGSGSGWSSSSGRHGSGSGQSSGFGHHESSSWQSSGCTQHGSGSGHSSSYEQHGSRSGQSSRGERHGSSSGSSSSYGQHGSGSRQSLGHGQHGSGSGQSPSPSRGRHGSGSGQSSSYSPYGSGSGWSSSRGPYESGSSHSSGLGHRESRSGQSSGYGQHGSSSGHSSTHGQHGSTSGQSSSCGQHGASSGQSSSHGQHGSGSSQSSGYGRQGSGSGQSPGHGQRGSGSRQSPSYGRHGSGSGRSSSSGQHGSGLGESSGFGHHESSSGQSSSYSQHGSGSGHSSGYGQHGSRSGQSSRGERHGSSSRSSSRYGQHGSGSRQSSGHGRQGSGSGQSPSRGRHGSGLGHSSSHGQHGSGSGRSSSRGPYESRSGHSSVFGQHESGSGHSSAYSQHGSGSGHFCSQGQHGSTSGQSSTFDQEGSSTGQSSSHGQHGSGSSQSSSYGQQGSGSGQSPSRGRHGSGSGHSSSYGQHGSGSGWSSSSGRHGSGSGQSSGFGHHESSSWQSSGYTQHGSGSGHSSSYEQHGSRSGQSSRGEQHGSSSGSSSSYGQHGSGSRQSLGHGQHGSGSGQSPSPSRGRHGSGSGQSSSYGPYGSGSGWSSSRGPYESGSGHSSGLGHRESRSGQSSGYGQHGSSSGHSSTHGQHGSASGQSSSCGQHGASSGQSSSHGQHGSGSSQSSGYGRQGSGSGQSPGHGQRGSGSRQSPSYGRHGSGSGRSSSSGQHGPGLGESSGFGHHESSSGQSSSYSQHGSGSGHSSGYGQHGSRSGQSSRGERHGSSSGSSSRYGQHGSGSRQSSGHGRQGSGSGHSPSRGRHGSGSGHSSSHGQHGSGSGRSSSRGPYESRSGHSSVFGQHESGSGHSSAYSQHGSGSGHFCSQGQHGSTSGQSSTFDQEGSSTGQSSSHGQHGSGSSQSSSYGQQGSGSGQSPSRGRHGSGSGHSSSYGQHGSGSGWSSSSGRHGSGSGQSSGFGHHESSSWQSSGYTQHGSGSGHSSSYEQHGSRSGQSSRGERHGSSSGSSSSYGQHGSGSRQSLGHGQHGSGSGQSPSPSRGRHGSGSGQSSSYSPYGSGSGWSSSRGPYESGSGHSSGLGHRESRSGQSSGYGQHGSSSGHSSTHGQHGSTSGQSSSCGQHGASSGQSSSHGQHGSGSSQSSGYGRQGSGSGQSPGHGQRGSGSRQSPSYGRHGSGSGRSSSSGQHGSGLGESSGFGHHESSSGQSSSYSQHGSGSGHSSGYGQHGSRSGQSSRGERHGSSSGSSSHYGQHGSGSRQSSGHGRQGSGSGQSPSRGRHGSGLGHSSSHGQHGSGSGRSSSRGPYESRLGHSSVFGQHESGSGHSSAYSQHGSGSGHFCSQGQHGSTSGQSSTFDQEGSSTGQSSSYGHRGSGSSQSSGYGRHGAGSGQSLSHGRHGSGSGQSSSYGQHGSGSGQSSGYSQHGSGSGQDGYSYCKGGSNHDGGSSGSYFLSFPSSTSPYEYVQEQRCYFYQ
UniProt P02647: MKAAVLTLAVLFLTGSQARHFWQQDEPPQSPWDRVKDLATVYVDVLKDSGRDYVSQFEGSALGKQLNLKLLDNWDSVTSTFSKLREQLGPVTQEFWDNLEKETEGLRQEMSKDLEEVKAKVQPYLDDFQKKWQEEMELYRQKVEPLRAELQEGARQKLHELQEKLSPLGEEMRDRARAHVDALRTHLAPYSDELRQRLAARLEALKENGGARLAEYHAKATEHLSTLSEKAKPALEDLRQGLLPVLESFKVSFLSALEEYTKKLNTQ

Legend:
Experiment in all cases: affinity purification with mass spectrometry; VCAM or LRG covalently immobilised on the chip of a four-channel spectroscopic SPR biosensor; plasma of MDS patients flowed over; captured proteins removed with 10 mM sodium hydroxide, digested with trypsin and identified by LC-MS/MS (at least two unique peptides); only the target purified
[1] = target: T1, Recombinant Human Leucine-rich alpha-2-glycoprotein (human) (UniProt P02750)
T1 sequence: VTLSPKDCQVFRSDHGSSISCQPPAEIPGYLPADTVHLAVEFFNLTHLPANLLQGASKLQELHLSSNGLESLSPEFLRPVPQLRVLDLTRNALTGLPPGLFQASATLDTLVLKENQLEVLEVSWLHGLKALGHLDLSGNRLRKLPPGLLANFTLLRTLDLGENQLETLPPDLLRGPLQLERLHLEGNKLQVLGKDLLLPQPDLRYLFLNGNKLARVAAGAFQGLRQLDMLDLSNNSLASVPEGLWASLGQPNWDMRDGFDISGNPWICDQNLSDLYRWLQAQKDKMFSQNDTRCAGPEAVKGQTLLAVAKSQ

[2] = target: Recombinant Human Vascular Cell Adhesion Protein 1 (human) (UniProt P19320)
[3] = target: Recombinant Human Vascular Cell Adhesion Protein 1 (human) (UniProt P19320); remark: listed apart in the source
[4] = target: T1, Recombinant Human Leucine-rich alpha-2-glycoprotein (human); remark: listed apart in the source

binding [1]: binds
binding [2]: binds
Molecule: Zinc-alpha-2-glycoprotein (from UniProt P25311 21-298)

binding [3]: binds
B2: Serum amyloid A-1 protein (protein, UniProt P0DJI8 19-122)
chain: RSFFSFLGEAFDGARDMWRAYSDMREANYIGSDKYFHARGNYDAAKRGPGGAWAAEVITDARENIQRFFGHGAEDSLADQAANEWGRSGKDPNHFRPAGLPEKY

binding [4]: binds
B4: Protein S100-A8 (protein, UniProt P05109 1-93)
chain: MLTELEKALNSIIDVYHKYSLIKGNFHAVYRDDLKKLLETECPQYIRKKGADVWFKELDINTDGAVNFQEFLILVIKMGVAAHKKSHEESHKE

The remaining lines, values behind:

Molecule: Hornerin (from UniProt Q86YZ3 1-2850)
binding [1]: binds
binding [2]: binds

Molecule: Apolipoprotein A-I (from UniProt P02647)
binding [2]: binds

B1: Apolipoprotein C-II (protein, UniProt P02655 23-101)
chain: TQQPQQDEMPSPTFLTQVKESLSSYWESAKTAAQNLYEKTYLPAVDEKLRDLYSKSTAAMSTYTGIFTDQVLSVLKGEE
binding [3]: binds

B3: Gamma-glutamylcyclotransferase (enzyme, UniProt O75223 1-188)
chain: MANSGCKDVTGPDEESFLYFAYGSNLLTERIHLRNPSAAFFCVARLQDFKLDFGNSQGKTSQTWHGGIATIFQSPGDEVWGVVWKMNKSNLNSLDEQEGVKSGMYVVIEVKVATQEGKEITCRSYLMTNYESAPPSPQYKKIICMGAKENGLPLEYQEKLKAIEPNDYTGKVSEEIEDIIKKGETQTL
binding [4]: binds

Like-named read-outs stand apart in the source and are kept apart here. These are yes or no findings as the source states them, for the method shown. In cells and extracts the contact can be indirect. These calls come from enrichment with a bait or labelling near it, and not all partners need be listed. One block for each molecule: values may come before it.
